The other results are listed elsewhere or left out. Further columns of the screen follow, without active or inactive calls. Most of these compounds were active or inconclusive in the main read-out, so they are no random draw. Potencies come from curve fits of mixed quality, noted in brackets.

The experiment is described as follows: qHTS Assay to Find Inhibitors of Chronic Active B-Cell Receptor Signaling. To be noted: ABC-DLBCL IkBa-CBG/CBR reporter, luminescence ratio (green luciferase fused to IkBa over red control in TMD8 lymphoma cells), 4 h. In outline: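 Cell line TMD8 (human ABC DLBCL), stably expressing tet-inducible CBG68-IkBa fusion and CBR; IMDM/0.5% FBS; cpd up to 46 uM; dox induction, 4 h, 37C/5% CO2; dual luminescence; green/red ratio; MG132 control.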

Where [1] appears, read: measured here: CBR red luminescence, cell number.
Setting [2] is: measured here: IkBa-CBG green luminescence.

For the compound `COc1ccccc1NC(=O)CC1S/C(=N/N=C2\CCCc3ccccc32)NC1=O` (stereo not drawn), under setting [1], the AC50 was 11.2 µM [falling, partial curve, poor fit].
The same measure, in the same setting: the value for `C[C@@H](C(=O)O)[C@H]1C[C@]1(C)[C@H](NC(=O)OCc1ccccc1)c1ccccc1` was 16.4 µM [rising, partial curve, poor fit].
Consider `Cc1ccc(NC(=O)c2ccc3c(c2)OCCO3)cc1S(=O)(=O)Nc1cccc(Cl)c1`, for which the AC50 under setting [1] is 18.4 µM [falling, partial curve] and the concentration at half-maximal activity (AC50) under setting [2] is 23.1 µM [rising, partial curve, poor fit].
As to `O=S(c1ccc2ccccc2c1)c1cnns1` (stereo not drawn), under setting [1], the AC50 was 6.31 µM [falling, single point].
Regarding `COc1cc(OC)cc(-c2c(-c3ccc(F)cc3)c3cc(-c4ccc5[nH]ccc5c4)ccc3n2C)c1`, the AC50 under setting [1] was 29.1 µM [rising, single point].
With `COc1ccc(NC(=O)c2cc(CC(C)C)on2)cc1OC`, the AC50 under setting [1] is 29.1 µM [rising, single point].
Still for that read-out and setting: the value for `CCN(Cc1nc(-c2ccc(OC)c(OC)c2)no1)C(=O)c1ccoc1C` was 11.2 µM [falling, partial curve].
With `O=C(CSc1ccccn1)Nc1ccc2c(c1)C(=O)c1ccccc1C2=O`, the AC50 under setting [2] was 23.1 µM [rising, partial curve, poor fit].
Take `Cc1[nH]n2c(=O)c3c(nc2c1-c1ccccc1)CCC3`: under setting [1], the AC50 is 0.92 µM [falling, full curve, poor fit].
With `CCc1ccc(NC2Nc3cc(C)nn3S2)cc1` (stereo not drawn), the AC50 under setting [1] is 0.92 µM [rising, full curve, poor fit].
On the same count and under the same terms, the value for `O=C(Nc1ccc(Cl)cn1)Nc1ccc(Cl)cn1` was 1.78 µM [rising, full curve, poor fit]; that for `O=C(NC1CCCCC1)c1ccc2c(c1)OCO2` was 17.8 µM [falling, partial curve, poor fit].
The same measure, in the same setting: the value for `CNC(=O)c1ncoc1-c1ccc(Cl)cc1` was 2.82 µM [rising, single point]; that for `Cc1cc(C)c(C(=O)CSc2nc(C)cc(=O)[nH]2)c(C)c1` was 3.55 µM [rising, single point].
Consider `Nc1[nH]n(-c2ccccc2)c(=O)c1N=Nc1ccc2c(c1)OCO2`, for which the AC50 under setting [1] is 1 µM [falling, full curve].
Same read-out and setting: the value for `Cc1ccc(NC(=O)Cn2cnc3sc(C(=O)NCc4ccco4)c(C)c3c2=O)cc1Cl` was 23.1 µM [rising, single point]; that for `O=C(CCn1c(=O)c2ccccc2n(CC(=O)NC2CCCC2)c1=O)NCc1ccco1` was 6.51 µM [rising, single point].
As to `Cc1sc2ncnc(N=Nc3c(O)[nH]c4ccccc34)c2c1C`, the AC50 under setting [1] is 0.461 µM [falling, full curve, poor fit].
Turning to `CC1=C(C#N)C(c2ccc3ncccc3c2)C(C#N)=C(C)N1`, the AC50 under setting [1] was 9.2 µM [rising, partial curve, poor fit].
The same measure, in the same setting: the value for `O=c1[nH]c2cc(Br)cnc2nc1/C=C(\O)c1ccc(F)cc1` was 0.631 µM [falling, full curve, poor fit]; that for `COc1cc(OC)cc(C(=O)NNC(=O)c2ccc3c(c2)OCCO3)c1` was 23.1 µM [falling, partial curve].
Consider `CCOC(=O)C1CCCN(S(=O)(=O)c2ccc(Br)c(OC)c2)C1` (stereo not drawn), for which the AC50 under setting [1] was 8.2 µM [falling, partial curve, poor fit].
On the same count and under the same terms, the value for `COc1ccc(C(=O)COC(=O)CCC(=O)c2cccs2)cc1` was 35.5 µM [falling, single point].
Take `CCC(c1nnnn1Cc1ccco1)N(Cc1cc2cc(OC)ccc2[nH]c1=O)C1CCCCC1` (stereo not drawn): the AC50 under setting [1] is 23.1 µM [falling, partial curve] and the AC50 under setting [2] is 20.6 µM [rising, partial curve, poor fit].
`Cc1c(NC(=O)CSc2ccc(Cl)cc2)cccc1-c1nc2cc(Cl)ccc2o1`: the AC50 under setting [1] was 29.1 µM [rising, single point].
The same measure, in the same setting: the value for `CCOC(=O)N1CCN(S(=O)(=O)c2cc([N+](=O)[O-])c(C)cc2C)CC1` was 11.2 µM [rising, single point]; that for `Nc1c(NCc2ccccc2)c2ccccc2oc1=O` was 16.4 µM [falling, single point]; that for `O=C(CCN1C(=O)C2CCCCC2C1=O)Nc1nc(-c2ccc(F)c(F)c2)cs1` (stereo not drawn) was 10 µM [rising, partial curve, poor fit].
On the same count and under the same terms, the value for `CCOC(=O)C(=CNNc1cccc(Cl)c1)C(=O)OCC` was 35.5 µM [falling, single point]; that for `CC(=O)c1cc2c(cc1NC(=O)CCc1ccccc1)OCO2` was 29.1 µM [falling, partial curve, poor fit]; that for `N#Cc1nc(COc2ccc(F)cc2)oc1NCCN1CCOCC1` was 6.51 µM [rising, single point].
On the same count and under the same terms, the value for `CCO[C@H]1OC(C(=O)NCc2nc3ccccc3[nH]2)=C[C@@H](c2csc3ccccc23)[C@@H]1CCCO` was 12.6 µM [falling, single point]; that for `Cc1cc(OCC(=O)NCC(C)C)cc(C)c1Br` was 3.26 µM [rising, partial curve].
Take `COc1cc2c(cc1OC)C(c1ccccc1)N(C(=O)C(C)(C)C)CC2` (stereo not drawn): the AC50 under setting [1] is 8.91 µM [falling, partial curve, poor fit].
On to `O=C(O)C1CCCCC1C(=O)Nc1ccc2c(c1)CCC2` (stereo not drawn), for which the AC50 under setting [1] is 20.6 µM [rising, single point].
Consider `COc1ccc(OC)c(NC(=O)CSC2=Nc3ccccc3C3=NC(CCC(=O)NCCc4ccccc4)C(=O)N23)c1` (stereo not drawn), for which the AC50 under setting [1] is 12.6 µM [falling, partial curve, poor fit].
For the compound `Cc1ccc(Cl)cc1Nc1nc(-c2sc(NC(=O)C(C)(C)C)nc2C)cs1`, under setting [1], the AC50 is 12.6 µM [falling, partial curve].
On the same count and under the same terms, the value for `Cc1ccccc1C(=O)NCC(=O)OCCOc1ccc(C(C)C)c(C)c1` was 16.4 µM [rising, partial curve, poor fit]; that for `CC(=O)c1cc(-c2ccccc2)n(CCC(=O)NC2CCCCCC2)c1C` was 0.651 µM [rising, single point]; that for `COc1ccc2ccccc2c1/C=N/NC(=O)c1ccccc1F` was 35.5 µM [falling, single point].
Consider `CCCCOc1ccccc1NC(=O)CSc1nnnn1C(C)(C)C`, for which the AC50 under setting [1] was 11.2 µM [falling, partial curve, poor fit].
Still for that read-out and setting: the value for `COc1ccc(-c2nnc(NC(=O)CSc3ccccc3)s2)cc1OC` was 11.6 µM [rising, partial curve, poor fit]; that for `CCN(CC(=O)Nc1cccc(S(=O)(=O)N2CCCCC2)c1)Cc1ccccc1` was 8.2 µM [falling, partial curve].
Still for that read-out and setting: the value for `CC1(C)Cc2ccccc2-c2nc(-c3ccccc3)oc(=O)c21` was 20.6 µM [rising, single point]; that for `CC(=O)Nc1sc(N/N=C\c2ccccc2Cl)nc1-c1cccs1` was 16.4 µM [falling, single point].
Same read-out and setting: the value for `Cn1nnnc1SCC(=O)Nc1nc2c(s1)CCCC2` was 16.4 µM [rising, partial curve, poor fit]; that for `Cc1noc(/C=C/c2ccco2)c1S(=O)(=O)N1CCC(C(=O)N2CCc3ccccc3C2)CC1` was 10 µM [rising, partial curve]; that for `CN(C)C(C)(C)/C=C/C(O)(c1ccccc1)c1ccccc1` was 35.5 µM [falling, single point].
In the case of `CCCCC(=O)Nc1ccc(Cl)cn1`, the AC50 under setting [1] was 0.708 µM [rising, partial curve, poor fit].
Take `Cc1ccc(C(=O)Nc2ccnc(-c3ccncc3)n2)cc1`: the AC50 under setting [1] was 5.01 µM [rising, full curve, poor fit].
On to `O=C(NC1CCCC1)C1CCCN1S(=O)(=O)c1cccc2cccnc12` (stereo not drawn), for which the AC50 under setting [1] was 20.6 µM [falling, single point].
As to `Cc1cnc(NC(=O)CSc2nnc(C)s2)s1`, under setting [1], the AC50 is 20.6 µM [falling, single point].
For `COC(=O)CCCNC(=O)c1ccccn1`, the AC50 by setting is: under setting [1], 35.5 µM [rising, single point]; under setting [2], 25.1 µM [falling, single point].
As for `COC(=O)C1=C(C)NC=C([N+](=O)[O-])C1c1ccc(OC)cc1` (stereo not drawn), the half-maximal activity concentration (AC50) under setting [1] was 29.1 µM [rising, single point].
On the same count and under the same terms, the value for `S=C(NCc1ccccn1)Nc1ccccc1` was 3.66 µM [rising, full curve].
For `CC(C)N(Cc1nnc(-c2ccc(Cl)cc2)o1)C(=O)C1=COCCO1`, under setting [1], the concentration at half-maximal activity (AC50) is 0.00461 µM [rising, full curve, poor fit].
The same measure, in the same setting: the value for `O=C(Nc1cccc(-c2ccc(F)cc2)c1)C1CCCN(Cc2cccnc2)C1` (stereo not drawn) was 8.91 µM [falling, single point].
The same measure, in the same setting: the value for `CCOc1cc(/C=N/NC(=O)c2ccc3c(c2)OCCO3)cc(Br)c1O` was 12.6 µM [falling, partial curve, poor fit]; that for `Cc1ccc(NC(=O)c2ccc(-n3cccn3)c([N+](=O)[O-])c2)cc1C` was 20 µM [falling, single point].
The same measure, in the same setting: the value for `COc1ccc(-n2c(SCC(=O)Nc3ncc(Cl)cc3Cl)nc3ccccc32)cc1` was 7.08 µM [falling, full curve]; that for `Cc1cc(Cl)ccc1NNC(N)=S` was 5.62 µM [rising, single point].
Turning to `CN1CCN(C(=O)c2cc(C(C)(C)C)cc(C(C)(C)C)c2)CC1`, under setting [1], the AC50 was 3.55 µM [rising, full curve, poor fit].
On the same count and under the same terms, the value for `CCOC(=O)CN1C(=O)/C(=C/c2cccc(Br)c2)Oc2ccccc21` was 2 µM [rising, full curve]; that for `COC(=O)c1cn(NC(=O)CC2CCCCC2)c(=O)c2ccccc12` was 29.1 µM [rising, single point].
The same measure, in the same setting: the value for `COC(=O)C(NC(=O)c1ccc(C)cc1)(Nc1cccc(C)n1)C(F)(F)F` (stereo not drawn) was 18.4 µM [rising, partial curve, poor fit].

These data come from PubChem BioAssay AID493014 (National Center for Advancing Translational Sciences (NCATS), 2011).
